Results as given in paper PMC11362597.
These are yes or no findings as the source states them, for the method shown. Binding seen in cells or lysates may run through a third protein. Some entries that bind do so weakly or less than the wild type.

Chains of the proteins cited; added tags and fusions are not shown.
UniProt P42331: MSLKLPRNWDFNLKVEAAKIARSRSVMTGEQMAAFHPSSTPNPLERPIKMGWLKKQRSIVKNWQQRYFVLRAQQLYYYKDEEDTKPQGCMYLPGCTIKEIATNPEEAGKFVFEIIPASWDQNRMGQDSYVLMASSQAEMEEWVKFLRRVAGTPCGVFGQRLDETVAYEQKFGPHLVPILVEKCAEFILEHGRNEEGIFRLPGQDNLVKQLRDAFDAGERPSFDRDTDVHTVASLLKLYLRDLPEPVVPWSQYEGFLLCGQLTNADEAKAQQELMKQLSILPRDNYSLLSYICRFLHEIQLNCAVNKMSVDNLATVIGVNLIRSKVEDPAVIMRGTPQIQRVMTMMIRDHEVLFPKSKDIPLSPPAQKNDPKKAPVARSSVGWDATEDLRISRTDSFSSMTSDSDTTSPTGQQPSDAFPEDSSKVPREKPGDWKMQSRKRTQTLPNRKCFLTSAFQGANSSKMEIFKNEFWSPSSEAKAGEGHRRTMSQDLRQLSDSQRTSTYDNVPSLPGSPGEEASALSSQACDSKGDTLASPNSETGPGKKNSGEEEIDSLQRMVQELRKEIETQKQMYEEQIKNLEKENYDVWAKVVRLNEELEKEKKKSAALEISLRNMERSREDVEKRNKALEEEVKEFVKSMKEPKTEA

Target: GST-fused recombinant ARHGAP25 (human) (UniProt P42331)
Assay: pull-down; eluates of the GST-ARHGAP25 and GST pull-downs from intact neutrophil lysate, immunoblotted; only the target purified

binding: binds
B1: ACSL1 (protein, UniProt P33121 1-698)
chain: MQAHELFRYFRMPELVDFRQYVRTLPTNTLMGFGAFAALTTFWYATRPKPLKPPCDLSMQSVEVAGSGGARRSALLDSDEPLVYFYDDVTTLYEGFQRGIQVSNNGPCLGSRKPDQPYEWLSYKQVAELSECIGSALIQKGFKTAPDQFIGIFAQNRPEWVIIEQGCFAYSMVIVPLYDTLGNEAITYIVNKAELSLVFVDKPEKAKLLLEGVENKLIPGLKIIVVMDAYGSELVERGQRCGVEVTSMKAMEDLGRANRRKPKPPAPEDLAVICFTSGTTGNPKGAMVTHRNIVSDCSAFVKATENTVNPCPDDTLISFLPLAHMFERVVECVMLCHGAKIGFFQGDIRLLMDDLKVLQPTVFPVVPRLLNRMFDRIFGQANTTLKRWLLDFASKRKEAELRSGIIRNNSLWDRLIFHKVQSSLGGRVRLMVTGAAPVSATVLTFLRAALGCQFYEGYGQTECTAGCCLTMPGDWTAGHVGAPMPCNLIKLVDVEEMNYMAAEGEGEVCVKGPNVFQGYLKDPAKTAEALDKDGWLHTGDIGKWLPNGTLKIIDRKKHIFKLAQGEYIAPEKIENIYMRSEPVAQVFVHGESLQAFLIAIVVPDVETLCSWAQKRGFEGSFEELCRNKDVKKAILEDMVRLGKDSGLKPFEQVKGITLHPELFSIDNGLLTPTMKAKRPELRNYFRSQIDDLYSTIKV
